Here are results for 35 targets from the supplement of paper PMC10849652.

The chains behind the UniProt entries cited, without tags or fusion partners. Where a name states a change or a piece, a line headed by the entry shows the natural chain unless it says otherwise.
UniProt Q96T58, whole entry, looked up: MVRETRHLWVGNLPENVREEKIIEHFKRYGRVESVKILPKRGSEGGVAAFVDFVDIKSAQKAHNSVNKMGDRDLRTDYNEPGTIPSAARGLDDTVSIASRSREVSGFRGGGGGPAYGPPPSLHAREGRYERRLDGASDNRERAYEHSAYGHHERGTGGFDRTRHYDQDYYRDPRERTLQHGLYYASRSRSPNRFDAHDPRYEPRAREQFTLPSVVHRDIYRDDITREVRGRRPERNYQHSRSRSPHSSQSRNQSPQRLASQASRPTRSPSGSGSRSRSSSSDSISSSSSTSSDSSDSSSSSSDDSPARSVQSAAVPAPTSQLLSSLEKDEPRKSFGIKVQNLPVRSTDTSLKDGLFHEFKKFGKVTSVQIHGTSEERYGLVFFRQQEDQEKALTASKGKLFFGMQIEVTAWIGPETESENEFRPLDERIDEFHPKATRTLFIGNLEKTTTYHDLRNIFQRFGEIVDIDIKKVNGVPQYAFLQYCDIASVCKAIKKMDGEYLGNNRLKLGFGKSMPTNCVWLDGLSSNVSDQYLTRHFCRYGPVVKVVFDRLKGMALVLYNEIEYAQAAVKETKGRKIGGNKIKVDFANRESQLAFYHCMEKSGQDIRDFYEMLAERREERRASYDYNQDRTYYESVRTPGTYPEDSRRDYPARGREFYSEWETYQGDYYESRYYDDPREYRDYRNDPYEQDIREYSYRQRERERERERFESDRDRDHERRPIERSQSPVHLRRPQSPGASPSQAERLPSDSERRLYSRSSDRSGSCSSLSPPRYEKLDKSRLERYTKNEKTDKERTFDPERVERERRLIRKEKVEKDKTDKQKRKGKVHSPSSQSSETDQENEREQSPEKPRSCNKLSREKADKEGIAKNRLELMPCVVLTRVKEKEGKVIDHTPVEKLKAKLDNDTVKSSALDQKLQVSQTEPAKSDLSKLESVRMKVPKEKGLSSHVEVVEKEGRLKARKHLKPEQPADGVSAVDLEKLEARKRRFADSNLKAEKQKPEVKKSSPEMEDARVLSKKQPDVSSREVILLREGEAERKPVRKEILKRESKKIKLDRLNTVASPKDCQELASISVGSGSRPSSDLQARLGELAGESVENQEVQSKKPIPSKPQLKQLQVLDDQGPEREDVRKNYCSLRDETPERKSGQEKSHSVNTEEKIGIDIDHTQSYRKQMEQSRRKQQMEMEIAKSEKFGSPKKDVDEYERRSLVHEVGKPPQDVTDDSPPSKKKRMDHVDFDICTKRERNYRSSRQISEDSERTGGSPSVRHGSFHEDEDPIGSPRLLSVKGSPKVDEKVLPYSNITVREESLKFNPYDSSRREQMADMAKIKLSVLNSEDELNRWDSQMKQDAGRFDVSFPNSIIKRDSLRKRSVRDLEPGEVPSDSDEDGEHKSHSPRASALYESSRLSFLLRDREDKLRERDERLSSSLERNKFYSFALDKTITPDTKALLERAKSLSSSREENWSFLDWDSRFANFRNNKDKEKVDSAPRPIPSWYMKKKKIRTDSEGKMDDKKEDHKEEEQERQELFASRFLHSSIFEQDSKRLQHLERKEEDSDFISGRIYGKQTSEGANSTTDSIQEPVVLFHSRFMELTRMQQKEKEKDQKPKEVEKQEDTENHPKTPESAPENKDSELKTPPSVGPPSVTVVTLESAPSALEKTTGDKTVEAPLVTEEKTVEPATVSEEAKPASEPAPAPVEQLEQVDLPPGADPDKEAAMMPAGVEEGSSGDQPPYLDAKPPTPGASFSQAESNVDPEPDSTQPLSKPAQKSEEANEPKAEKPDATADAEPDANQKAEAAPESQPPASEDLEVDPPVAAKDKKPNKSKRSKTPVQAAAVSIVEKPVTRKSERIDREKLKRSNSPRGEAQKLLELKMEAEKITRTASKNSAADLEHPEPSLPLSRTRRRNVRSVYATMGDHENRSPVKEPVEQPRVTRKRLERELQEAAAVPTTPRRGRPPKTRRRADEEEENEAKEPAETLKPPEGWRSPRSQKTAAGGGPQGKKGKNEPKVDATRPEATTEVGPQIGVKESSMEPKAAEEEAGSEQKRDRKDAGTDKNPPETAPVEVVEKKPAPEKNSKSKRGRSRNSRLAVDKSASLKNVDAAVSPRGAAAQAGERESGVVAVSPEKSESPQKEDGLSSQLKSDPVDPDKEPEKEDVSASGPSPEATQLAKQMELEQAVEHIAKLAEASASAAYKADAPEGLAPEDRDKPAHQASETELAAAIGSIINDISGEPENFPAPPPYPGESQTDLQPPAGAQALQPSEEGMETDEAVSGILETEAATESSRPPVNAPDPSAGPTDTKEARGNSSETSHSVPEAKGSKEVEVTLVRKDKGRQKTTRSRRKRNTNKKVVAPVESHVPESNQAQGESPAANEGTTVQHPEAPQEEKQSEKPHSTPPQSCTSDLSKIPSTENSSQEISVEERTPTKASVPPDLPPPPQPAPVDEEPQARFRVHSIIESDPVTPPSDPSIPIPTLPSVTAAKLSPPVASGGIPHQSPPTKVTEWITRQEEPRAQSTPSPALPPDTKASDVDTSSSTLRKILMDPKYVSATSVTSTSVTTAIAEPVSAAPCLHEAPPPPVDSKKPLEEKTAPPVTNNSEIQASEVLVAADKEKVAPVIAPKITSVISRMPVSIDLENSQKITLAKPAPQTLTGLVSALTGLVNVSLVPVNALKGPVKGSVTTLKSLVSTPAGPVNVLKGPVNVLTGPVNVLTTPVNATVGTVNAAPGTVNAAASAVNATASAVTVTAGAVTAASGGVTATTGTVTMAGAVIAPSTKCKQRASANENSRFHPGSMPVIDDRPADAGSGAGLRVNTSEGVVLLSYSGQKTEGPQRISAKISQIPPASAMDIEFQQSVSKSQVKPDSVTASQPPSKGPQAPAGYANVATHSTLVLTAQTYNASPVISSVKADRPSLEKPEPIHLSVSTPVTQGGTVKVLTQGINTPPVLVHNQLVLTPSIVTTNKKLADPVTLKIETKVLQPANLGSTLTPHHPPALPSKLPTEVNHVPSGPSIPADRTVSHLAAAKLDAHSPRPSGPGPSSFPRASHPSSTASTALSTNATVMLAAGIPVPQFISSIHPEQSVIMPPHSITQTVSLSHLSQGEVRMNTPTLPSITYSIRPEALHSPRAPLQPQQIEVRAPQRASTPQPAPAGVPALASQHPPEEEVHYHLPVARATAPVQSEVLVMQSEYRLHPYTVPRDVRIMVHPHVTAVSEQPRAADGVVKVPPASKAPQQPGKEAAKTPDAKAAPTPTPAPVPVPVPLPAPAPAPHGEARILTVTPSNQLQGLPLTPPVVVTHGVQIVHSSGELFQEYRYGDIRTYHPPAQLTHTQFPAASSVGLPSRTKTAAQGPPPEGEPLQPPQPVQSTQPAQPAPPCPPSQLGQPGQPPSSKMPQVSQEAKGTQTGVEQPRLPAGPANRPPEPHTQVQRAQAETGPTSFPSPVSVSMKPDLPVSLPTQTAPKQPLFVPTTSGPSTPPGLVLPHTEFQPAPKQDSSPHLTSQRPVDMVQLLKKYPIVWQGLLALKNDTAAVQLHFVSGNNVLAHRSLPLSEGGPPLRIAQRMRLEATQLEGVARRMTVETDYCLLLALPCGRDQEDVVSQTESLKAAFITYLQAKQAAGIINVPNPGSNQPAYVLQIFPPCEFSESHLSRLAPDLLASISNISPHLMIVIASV
UniProt P35325: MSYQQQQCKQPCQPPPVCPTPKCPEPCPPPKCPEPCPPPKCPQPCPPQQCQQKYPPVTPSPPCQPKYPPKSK
UniProt Q08AE8, whole entry, looked up: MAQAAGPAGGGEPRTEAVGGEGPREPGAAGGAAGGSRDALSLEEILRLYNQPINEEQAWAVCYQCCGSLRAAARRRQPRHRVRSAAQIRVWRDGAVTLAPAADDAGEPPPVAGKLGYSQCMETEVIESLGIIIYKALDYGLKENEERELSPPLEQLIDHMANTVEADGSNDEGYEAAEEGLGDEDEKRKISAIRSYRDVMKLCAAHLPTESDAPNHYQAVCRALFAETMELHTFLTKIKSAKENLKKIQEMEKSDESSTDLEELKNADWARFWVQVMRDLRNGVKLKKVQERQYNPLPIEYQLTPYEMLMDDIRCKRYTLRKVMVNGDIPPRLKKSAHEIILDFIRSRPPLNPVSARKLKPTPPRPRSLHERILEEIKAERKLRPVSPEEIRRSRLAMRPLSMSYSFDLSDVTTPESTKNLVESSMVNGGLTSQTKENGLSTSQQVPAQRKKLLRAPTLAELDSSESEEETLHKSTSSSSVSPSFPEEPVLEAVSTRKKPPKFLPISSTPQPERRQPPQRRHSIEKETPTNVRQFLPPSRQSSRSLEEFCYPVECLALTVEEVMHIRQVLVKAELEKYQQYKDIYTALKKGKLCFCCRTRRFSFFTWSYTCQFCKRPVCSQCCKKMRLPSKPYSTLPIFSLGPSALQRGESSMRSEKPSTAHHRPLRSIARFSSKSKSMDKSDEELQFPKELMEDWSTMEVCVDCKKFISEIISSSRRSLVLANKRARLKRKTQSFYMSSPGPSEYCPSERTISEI
UniProt Q9Y6E0: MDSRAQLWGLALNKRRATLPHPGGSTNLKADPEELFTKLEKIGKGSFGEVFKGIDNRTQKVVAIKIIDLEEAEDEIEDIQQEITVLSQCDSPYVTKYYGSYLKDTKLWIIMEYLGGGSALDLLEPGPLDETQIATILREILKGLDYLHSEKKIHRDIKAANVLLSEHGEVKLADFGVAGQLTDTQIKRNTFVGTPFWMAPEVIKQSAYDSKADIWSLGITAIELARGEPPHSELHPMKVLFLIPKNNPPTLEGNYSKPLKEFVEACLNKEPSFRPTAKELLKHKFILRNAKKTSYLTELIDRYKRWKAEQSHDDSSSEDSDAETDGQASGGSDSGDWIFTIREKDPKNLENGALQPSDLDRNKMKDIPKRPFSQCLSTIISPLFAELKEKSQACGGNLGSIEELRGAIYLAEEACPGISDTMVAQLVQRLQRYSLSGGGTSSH
UniProt Q86XZ4: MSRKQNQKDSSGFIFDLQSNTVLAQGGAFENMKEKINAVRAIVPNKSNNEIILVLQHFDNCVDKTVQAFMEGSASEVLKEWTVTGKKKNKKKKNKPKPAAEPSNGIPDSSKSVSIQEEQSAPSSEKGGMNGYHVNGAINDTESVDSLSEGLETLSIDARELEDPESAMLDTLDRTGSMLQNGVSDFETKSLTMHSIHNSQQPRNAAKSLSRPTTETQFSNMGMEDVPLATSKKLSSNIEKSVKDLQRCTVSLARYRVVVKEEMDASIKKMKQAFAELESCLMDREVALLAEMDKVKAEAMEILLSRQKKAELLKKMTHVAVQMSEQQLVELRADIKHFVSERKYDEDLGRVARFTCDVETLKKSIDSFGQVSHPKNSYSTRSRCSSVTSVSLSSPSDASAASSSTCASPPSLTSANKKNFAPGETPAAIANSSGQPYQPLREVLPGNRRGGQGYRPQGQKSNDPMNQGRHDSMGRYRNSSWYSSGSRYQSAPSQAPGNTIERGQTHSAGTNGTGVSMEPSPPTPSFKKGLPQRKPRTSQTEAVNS
UniProt Q9Y365: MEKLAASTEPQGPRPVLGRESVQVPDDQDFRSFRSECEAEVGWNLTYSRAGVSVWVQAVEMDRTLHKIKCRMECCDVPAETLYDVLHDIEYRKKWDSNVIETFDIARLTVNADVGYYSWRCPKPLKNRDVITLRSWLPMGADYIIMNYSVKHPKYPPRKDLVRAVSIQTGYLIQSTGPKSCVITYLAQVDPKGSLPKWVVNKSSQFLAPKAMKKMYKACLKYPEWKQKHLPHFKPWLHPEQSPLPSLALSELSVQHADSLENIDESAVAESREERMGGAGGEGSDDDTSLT
UniProt Q13242, whole entry, looked up: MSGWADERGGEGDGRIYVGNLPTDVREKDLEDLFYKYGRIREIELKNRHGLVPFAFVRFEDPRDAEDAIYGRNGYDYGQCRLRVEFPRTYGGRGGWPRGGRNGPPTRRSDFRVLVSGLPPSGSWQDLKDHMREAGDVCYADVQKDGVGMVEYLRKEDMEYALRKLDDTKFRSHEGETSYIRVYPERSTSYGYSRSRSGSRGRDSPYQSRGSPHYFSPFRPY
UniProt Q15532, whole entry, looked up: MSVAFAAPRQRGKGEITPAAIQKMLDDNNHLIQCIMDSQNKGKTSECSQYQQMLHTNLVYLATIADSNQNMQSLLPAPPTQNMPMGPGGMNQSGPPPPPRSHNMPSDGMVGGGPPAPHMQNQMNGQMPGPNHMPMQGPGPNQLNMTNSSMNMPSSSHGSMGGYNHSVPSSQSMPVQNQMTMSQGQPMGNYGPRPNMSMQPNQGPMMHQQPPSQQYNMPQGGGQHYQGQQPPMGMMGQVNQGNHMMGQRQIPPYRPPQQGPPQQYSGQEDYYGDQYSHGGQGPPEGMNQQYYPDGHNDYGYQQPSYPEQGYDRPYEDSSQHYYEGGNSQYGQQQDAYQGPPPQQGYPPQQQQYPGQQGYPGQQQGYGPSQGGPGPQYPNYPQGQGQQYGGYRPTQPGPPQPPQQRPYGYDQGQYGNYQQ
UniProt P22528: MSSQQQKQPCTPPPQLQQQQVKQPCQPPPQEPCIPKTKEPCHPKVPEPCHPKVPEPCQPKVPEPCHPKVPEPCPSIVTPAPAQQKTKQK

This is one part of the list.

Compound in the first test: CNC(=O)C1=CC=CC=C1NC2=NC(=NC=C2Cl)NC3=C(C=C(C=C3)N4CCOCC4)OC
The test can be described thus: log2 fold change, soluble protein after heating vs DMSO (PISA); higher = thermal stabilisation; K562 cells, 10 uM, 30 min; active = over 0.2 and 3.5 SD of the protein, either way, in both replicates (recomputed). An outline of the steps:
(§1)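 K562 cells at 2×10^6 cells/mL were exposed to 10 μM compound for 30 min, then aliquots were heated for 3 min across 48°C-58°C, pooled, and extracted in PBS containing 0.5% NP-40 at 4°C. The supernatant after 21,000xg for 90 min was taken as soluble protein and measured by TMTpro 16plex LC-MS/MS with channel sums equalised. Thermal stability is reported relative to control samples, with values from duplicates. Fold changes are given on a log2 scale.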
Take SREBF1 isoform 4 (UniProt P36956): the log2 fold change was inactive: 0.033.

On to SPEN (UniProt Q96T58), for which the log2 fold change is inactive: -0.037.

Consider STK16 (UniProt O75716), for which the log2 fold change was inactive: 0.209.

For the target SPIN4 (UniProt Q56A73), the log2 fold change was inactive: -0.199.

With SRRD (UniProt Q9UH36), the log2 fold change was inactive: 0.102.

As to SREBF2 (UniProt Q12772), the log2 fold change is inactive: -0.015.

As to SPRR2B (UniProt P35325), the log2 fold change was inactive: 0.141.

As for STC2 (UniProt O76061), the log2 fold change was inactive: 0.049.

Consider SPIRE1 (UniProt Q08AE8), for which the log2 fold change is inactive: -0.166.

For the target STK24 (UniProt Q9Y6E0), the log2 fold change is inactive: -0.007.

For SRC isoform 2 (UniProt P12931), the log2 fold change is inactive: -0.069.

For the target SPATS2 (UniProt Q86XZ4), the log2 fold change was inactive: -0.086.

As to SPINT1 (UniProt O43278), the log2 fold change was inactive: -0.038.

Take SRD5A3 (UniProt Q9H8P0): the log2 fold change was inactive: -0.027.

For ST3GAL4 isoform 4 (UniProt Q11206), the log2 fold change is inactive: 0.004.

As to STARD10 (UniProt Q9Y365), the log2 fold change was inactive: -0.012.

Consider SRSF9 (UniProt Q13242), for which the log2 fold change is inactive: -0.145.

Take STIM2 isoform 2 (UniProt Q9P246): the log2 fold change was inactive: 0.011.

Consider STK17B (UniProt O94768), for which the log2 fold change was active: -1.03.

Regarding SRCIN1 (UniProt Q9C0H9), the log2 fold change was inactive: -0.004.

For STAB1 (UniProt Q9NY15), the log2 fold change was inactive: -0.036.

Take SQOR (UniProt Q9Y6N5): the log2 fold change is inactive: 0.016.

As to SPPL3 (UniProt Q8TCT6), the log2 fold change was inactive: 0.142.

On to SS18 (UniProt Q15532), for which the log2 fold change was inactive: 0.015.

Compound in a further test: CNC(=O)c1ccc(Nc2ncc(C(F)(F)F)c(NCc3nccnc3N(C)S(C)(=O)=O)n2)cc1 [defactinib]
The test is described as above. The method in brief: as §1
Turning to SPEN (UniProt Q96T58), the log2 fold change is inactive: -0.007.

Regarding SRXN1 (UniProt Q9BYN0), the log2 fold change is inactive: -0.283.

SREBF2 (UniProt Q12772): the log2 fold change was inactive: 0.005.

SPRR2B (UniProt P35325): the log2 fold change was inactive: 0.037.

As for ST8SIA6 (UniProt P61647), the log2 fold change was inactive: 0.046.

Consider STC2 (UniProt O76061), for which the log2 fold change was inactive: 0.252.

Turning to SPIRE1 (UniProt Q08AE8), the log2 fold change was inactive: 0.047.

As for STK24 (UniProt Q9Y6E0), the log2 fold change is inactive: -0.028.

As to SRC isoform 2 (UniProt P12931), the log2 fold change was inactive: -0.077.

Regarding SPATS2 (UniProt Q86XZ4), the log2 fold change was inactive: 0.091.

For STAR (UniProt P49675), the log2 fold change was inactive: -0.158.

Turning to SPINT1 (UniProt O43278), the log2 fold change is inactive: 0.064.

Take STARD10 (UniProt Q9Y365): the log2 fold change was inactive: -0.118.

SPTAN1 isoform 3 (UniProt Q13813): the log2 fold change was inactive: 0.08.

For SRSF9 (UniProt Q13242), the log2 fold change is inactive: 0.276.

Consider SPRED1 (UniProt Q7Z699), for which the log2 fold change was inactive: 0.054.

With STIM2 isoform 2 (UniProt Q9P246), the log2 fold change is inactive: -0.073.

With SRCIN1 (UniProt Q9C0H9), the log2 fold change was inactive: -0.065.

For STAB1 (UniProt Q9NY15), the log2 fold change was inactive: -0.107.

As for SQOR (UniProt Q9Y6N5), the log2 fold change is inactive: -0.021.

Regarding SSBP4 (UniProt U3KPY3), the log2 fold change is inactive: -0.189.

With SSB (UniProt E7ERC4), the log2 fold change was inactive: -0.205.

Take SRGAP1 (UniProt Q7Z6B7): the log2 fold change is inactive: -0.201.

On to SS18 (UniProt Q15532), for which the log2 fold change is inactive: -0.085.

Compound in another test: CNCc1ccc(-c2[nH]c3cc(F)cc4c3c2CCNC4=O)cc1 [rucaparib]
Described as above. An outline of the steps: as §1
On to SREBF1 isoform 4 (UniProt P36956), for which the log2 fold change is inactive: -0.164.

With SPEN (UniProt Q96T58), the log2 fold change was inactive: 0.18.

In the case of SRXN1 (UniProt Q9BYN0), the log2 fold change was inactive: 0.111.

Turning to SRRD (UniProt Q9UH36), the log2 fold change is inactive: 0.037.

For SREBF2 (UniProt Q12772), the log2 fold change was inactive: 0.022.

For the target SPRR2B (UniProt P35325), the log2 fold change is inactive: -0.034.

Turning to SPIRE1 (UniProt Q08AE8), the log2 fold change is inactive: 0.035.

For the target STK24 (UniProt Q9Y6E0), the log2 fold change is inactive: -0.041.

As for SRC isoform 2 (UniProt P12931), the log2 fold change is inactive: -0.343.

Regarding SPATS2 (UniProt Q86XZ4), the log2 fold change was inactive: 0.033.

On to SPRR1B (UniProt P22528), for which the log2 fold change was inactive: -0.106.

As for SRD5A3 (UniProt Q9H8P0), the log2 fold change was inactive: 0.032.

Consider STARD10 (UniProt Q9Y365), for which the log2 fold change was inactive: -0.065.

Turning to SRSF9 (UniProt Q13242), the log2 fold change is inactive: 0.376.

For SSBP2 (UniProt P81877), the log2 fold change was inactive: 0.

Take STIM2 isoform 2 (UniProt Q9P246): the log2 fold change was inactive: 0.234.

SS18 (UniProt Q15532): the log2 fold change is inactive: -0.056.

Compound in another test: CNc1nc(-c2ccc3c(N)n[nH]c3c2)cc(N2C[C@@H](C(=O)NC3CCCCC3)CC[C@H]2C)n1
The test is described as above. The method in brief: as §1
With SREBF1 isoform 4 (UniProt P36956), the log2 fold change is inactive: 0.045.

SPEN (UniProt Q96T58): the log2 fold change was inactive: 0.033.

On to STK24 (UniProt Q9Y6E0), for which the log2 fold change was inactive: -0.032.

For SRC isoform 2 (UniProt P12931), the log2 fold change is inactive: 0.007.

As for SPATS2 (UniProt Q86XZ4), the log2 fold change was inactive: 0.326.

With STARD10 (UniProt Q9Y365), the log2 fold change was inactive: 0.099.

Turning to SRSF9 (UniProt Q13242), the log2 fold change is inactive: 0.097.

Consider ST3GAL1 (UniProt Q11201), for which the log2 fold change is inactive: 0.08.

Take STAB1 (UniProt Q9NY15): the log2 fold change is inactive: -0.072.

For the target SQOR (UniProt Q9Y6N5), the log2 fold change is inactive: -0.082.

As for SSB (UniProt E7ERC4), the log2 fold change was inactive: 0.018.

On to SS18 (UniProt Q15532), for which the log2 fold change was inactive: -0.13.
